Laboratory results from US7056941B1 (priority 1997, dated 2006).
Some results were stated once for a whole list of compounds, not compound by compound.

The compounds below were run on Plasmopara viticola (assay: Activity against Plasmopara viticola on vine leaves (long-term protective)). Conditions: 16 ppm; potted vines Mller-Thurgau; inoculated 7 days after spraying; untreated plants 75% infection.
Assay type: in vivo

SMILES | maximum infection (extent of the infection at the undersides of the leaves, assessed visually) [%]
COc1nn(C)c(=O)n1-c1ccccc1COc1ccn(-c2cccc(C)n2)n1 [Compound I-8] | ≤ 15
COc1nn(C)c(=O)n1-c1ccccc1COc1ccn(-c2ccc(C)cc2)n1 [Compound I-6] | ≤ 15
COc1nn(C)c(=O)n1-c1ccccc1COc1ccn(-c2ccc(Cl)cc2Cl)n1 [Compound I-24] | ≤ 15
COc1nn(C)c(=O)n1-c1ccccc1COc1ccn(-c2cccc(C(F)(F)F)c2)n1 [Compound I-20] | ≤ 15
COc1nn(C)c(=O)n1-c1ccccc1COc1ccn(-c2ccc(F)cc2F)n1 [Compound I-16] | ≤ 15
COc1nn(C)c(=O)n1-c1ccccc1COc1ccn(-c2ccc(Br)cc2)n1 [Compound I-22] | ≤ 15
COc1nn(C)c(=O)n1-c1ccccc1COc1ccn(-c2cccc(Cl)c2)n1 [Compound I-12] | ≤ 15
COc1nn(C)c(=O)n1-c1ccccc1COc1nc(C)n(-c2ccc(Cl)cc2Cl)n1 [Compound I-44] | ≤ 15
COc1nn(C)c(=O)n1-c1ccccc1COc1ccn(-c2ccc(Cl)c(Cl)c2)n1 [Compound I-4] | ≤ 15
COc1nn(C)c(=O)n1-c1ccccc1COc1ccn(-c2ccc(Cl)cc2)n1 [Compound I-2] | ≤ 15
COc1nn(C)c(=O)n1-c1ccccc1COc1ccn(-c2ccc(Cl)cn2)n1 [Compound I-18] | ≤ 15
CCOc1ccc(-n2ccc(OCc3ccccc3-n3c(OC)nn(C)c3=O)n2)cc1 [Compound I-10] | ≤ 15
COc1nn(C)c(=O)n1-c1ccccc1COc1nn(-c2ccccc2)cc1C [Compound I-32] | ≤ 15
COc1nn(C)c(=O)n1-c1ccccc1COc1ncn(-c2ccc(Cl)cc2Cl)n1 [Compound I-38] | ≤ 15
COc1nn(C)c(=O)n1-c1ccccc1COc1nn(-c2ccc(C)cc2)cc1C [Compound I-28] | ≤ 15

What follows are compounds tested on Puccinia recondita (assay: Activity against Puccinia recondita on wheat (wheat leaf rust), curative). Conditions: 16 ppm; potted wheat seedlings Frühgold; sprayed the day after inoculation; untreated plants 80% infection.
Assay type: in vivo

SMILES | infection (extent of rust fungus development on the leaves)
COc1nn(C)c(=O)n1-c1ccccc1COc1ccn(-c2ccc(C)cc2)n1 [Compound I-6] | not more than 15%
COc1nn(C)c(=O)n1-c1ccccc1COc1ccn(-c2ccc(Cl)cc2Cl)n1 [Compound I-24] | not more than 15%
COc1nn(C)c(=O)n1-c1ccccc1COc1ccn(-c2ccc(F)cc2F)n1 [Compound I-16] | not more than 15%
COc1nn(C)c(=O)n1-c1ccccc1COc1ccn(-c2ccc(Br)cc2)n1 [Compound I-22] | not more than 15%
COc1nn(C)c(=O)n1-c1ccccc1COc1ccn(-c2ccc(Cl)c(Cl)c2)n1 [Compound I-4] | not more than 15%
COc1nn(C)c(=O)n1-c1ccccc1COc1ccn(-c2ccc(Cl)cc2)n1 [Compound I-2] | not more than 15%
COc1nn(C)c(=O)n1-c1ccccc1COc1nn(-c2ccccc2)cc1C [Compound I-32] | not more than 15%
COc1nn(C)c(=O)n1-c1ccccc1COc1ncn(-c2ccc(Cl)cc2Cl)n1 [Compound I-38] | not more than 15%
COc1nn(C)c(=O)n1-c1ccccc1COc1nn(-c2ccc(C)cc2)cc1C [Compound I-28] | not more than 15%
